Experimental data reported in PubChem BioAssay.
Inconclusive results, whose numbers are uncertain, are shown with a selection of clear calls. For part of these data: Potencies of inconclusive entries are doubtful fits and often do not repeat. Active and inactive are the calls of the source. Unless noted, cut-off not given; nearly all actives show AC50 up to about 26 µM.

Protein sequences, listed by entry. Tags and fused reporters are not part of them.
UniProt P08183, whole entry, looked up: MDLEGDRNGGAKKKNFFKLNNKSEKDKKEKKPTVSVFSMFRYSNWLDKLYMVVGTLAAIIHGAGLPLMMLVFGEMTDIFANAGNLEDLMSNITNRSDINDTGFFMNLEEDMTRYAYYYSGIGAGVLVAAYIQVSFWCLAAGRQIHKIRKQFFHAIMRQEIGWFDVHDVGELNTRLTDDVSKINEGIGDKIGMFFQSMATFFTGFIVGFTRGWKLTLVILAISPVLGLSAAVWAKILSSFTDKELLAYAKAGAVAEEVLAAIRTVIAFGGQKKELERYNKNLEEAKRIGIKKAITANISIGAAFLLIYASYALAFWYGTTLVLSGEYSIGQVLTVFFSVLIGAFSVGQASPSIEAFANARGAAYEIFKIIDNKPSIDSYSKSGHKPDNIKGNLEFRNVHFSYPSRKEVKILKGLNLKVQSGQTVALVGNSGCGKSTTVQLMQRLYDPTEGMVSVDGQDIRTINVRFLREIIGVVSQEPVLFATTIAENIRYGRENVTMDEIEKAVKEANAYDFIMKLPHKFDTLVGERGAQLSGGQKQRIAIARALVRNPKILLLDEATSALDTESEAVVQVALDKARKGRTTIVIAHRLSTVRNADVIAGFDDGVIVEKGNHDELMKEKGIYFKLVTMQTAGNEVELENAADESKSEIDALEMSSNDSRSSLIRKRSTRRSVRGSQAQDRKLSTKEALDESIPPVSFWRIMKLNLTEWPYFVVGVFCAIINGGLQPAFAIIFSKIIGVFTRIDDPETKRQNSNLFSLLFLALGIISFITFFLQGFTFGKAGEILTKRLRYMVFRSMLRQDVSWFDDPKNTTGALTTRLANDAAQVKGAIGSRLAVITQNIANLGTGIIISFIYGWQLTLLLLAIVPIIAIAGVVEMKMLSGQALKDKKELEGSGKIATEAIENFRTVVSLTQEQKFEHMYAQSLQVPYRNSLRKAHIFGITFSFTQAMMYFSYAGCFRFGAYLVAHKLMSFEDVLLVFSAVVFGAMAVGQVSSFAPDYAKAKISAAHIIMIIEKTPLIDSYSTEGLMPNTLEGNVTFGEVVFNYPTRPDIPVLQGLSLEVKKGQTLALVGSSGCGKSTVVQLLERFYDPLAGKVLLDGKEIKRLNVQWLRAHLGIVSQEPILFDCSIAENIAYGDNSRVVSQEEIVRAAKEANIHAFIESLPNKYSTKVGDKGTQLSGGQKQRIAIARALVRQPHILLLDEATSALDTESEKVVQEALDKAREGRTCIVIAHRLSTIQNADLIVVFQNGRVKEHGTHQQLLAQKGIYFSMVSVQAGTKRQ

Experiments:
[1] = growth inhibition of DIPG glioma cells, dose response, cell-based, SU-DIPG-XVII, MIPE5.0, CellTiter-Glo, qHTS (AID 1347060); conditions: SU-DIPG-XVII viability, CellTiter-Glo ATP luminescence;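 on AC50: cells exposed to compound for 48 hours before viability readout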
[2] = growth inhibition of DIPG glioma cells, dose response, cell-based, SU-DIPG-XIII, MIPE4.0, CellTiter-Glo, qHTS (AID 1347061; cut-off not given, nearly all actives have AC50 up to about 37 µM;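 further: cells exposed to compound for 48 hours before readout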); conditions: SU-DIPG-XIII viability, CellTiter-Glo ATP luminescence
[3] = growth inhibition of DIPG glioma cells, dose response, cell-based, JHH-DIPG-1, MIPE4.0, CellTiter-Glo, qHTS (AID 1347062; cut-off not given, nearly all actives have AC50 up to about 27 µM;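 on AC50: cells exposed to compound for two days before readout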); conditions: JHH-DIPG-1 viability, CellTiter-Glo ATP luminescence
[4] = growth inhibition of DIPG glioma cells, dose response, cell-based, SU-DIPG-XIII, MIPE5.0, CellTiter-Glo, qHTS (AID 1347064; cut-off not given, nearly all actives have AC50 up to about 23 µM;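 on AC50: cells exposed to compound for 48 hours before the viability read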); conditions: SU-DIPG-XIII viability, CellTiter-Glo ATP luminescence
[5] = SU-DIPG-VI glioma cell viability, MIPE4.0 library, CellTiter-Glo luminescence, qHTS (AID 1347066; cut-off not given, nearly all actives have AC50 up to about 30 µM;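 further: cells exposed to compound for 48 hours before readout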); conditions: CellTiter-Glo ATP luminescence
[6] = SU-DIPG-XXV glioma cell viability, MIPE5.0 library, qHTS (AID 1347068; cut-off not given, nearly all actives have IC50 up to about 30 µM;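 further: cells exposed to compound for 48 hours before viability readout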)
[7] = target: ATP-dependent translocase ABCB1 (Homo sapiens) (UniProt P08183); test: MDR1 (ABCB1) efflux transporter inhibition, cell-based (AID 377; in the data active means fluorescence slope change above about 50%; inconclusive means mostly about 31% to 49%); conditions: MDR1-expressing cells, fluorescent substrate accumulation slope; stronger effect = higher value; concentration not given here
[8] = inhibitors of polyQ aggregate elongation, biochemical, solid-phase synthetic aggregates, QA3 (AID 1585; call rule not given here); conditions: biotin-polyQ incorporation, at 100 µM, stronger effect = higher value
[9] = polyglutamine aggregation reduction, turbidity readout, qthio, single concentration 25 µM screen (AID 1588; call rule not given here); conditions: at 25 µM, stronger effect = lower value
[10] = protection of motor neurons from glutamate death, cell-based, TUNEL DNA degradation staining, MNGlu (AID 1594; call rule not given here); conditions: glutamate-induced death, at 1 µM, stronger effect = higher value
[11] = enhancers of SMN2 over SMN1 splicing, cell-based, SMN2/SMN1 luciferase reporters (AID 1598; call rule not given here); conditions: SMN2 vs SMN1 luciferase splicing reporter cells; at 10 µM; stronger effect = higher value
[12] = viability loss in pontine glioma line – cell-based, SU-DIPG-XXV, MIPE5.0, CellTiter-Glo, qHTS, dose response (AID 1347065); conditions: CellTiter-Glo ATP luminescence;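 further: cells exposed to compound for 48 hours before ATP readout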
[13] = mitochondrial permeability transition inhibitors (AID 1580; call rule not given here); conditions: isolated mitochondria, permeability transition inhibition; active call at 10 uM (0/1): at 10 µM, stronger effect = higher value
[14] = JHH-DIPG-1 glioma cell viability, MIPE5.0 library, CellTiter-Glo luminescence, qHTS (AID 1347067); conditions: JHH-DIPG-1 glioma viability, CellTiter-Glo ATP luminescence;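 further: cells exposed to compound for 48 hours before readout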

NC1(c2ccc(-c3nc4ccn5c(=O)[nH]nc5c4cc3-c3ccccc3)cc2)CCC1
active: AC50 [1] 16.6 µM | AC50 [3] 23.5 µM | AC50 [4] 6.61 µM | IC50 [6] 18.6 µM
inconclusive: AC50 [2] 14.8 µM [cytotoxic] | AC50 [5] 11.8 µM [cytotoxic]

Cn1c(Nc2ccc(C(F)(F)F)cc2)nc2cc(Oc3ccnc(-c4ncc(C(F)(F)F)[nH]4)c3)ccc21
inconclusive: AC50 [3] 1.48 µM [cytotoxic] | AC50 [4] 13.2 µM [cytotoxic] | IC50 [6] 11.8 µM
active: AC50 [1] 5.25 µM | AC50 [2] 16.6 µM

c1coc(CNc2ncnc3nc[nH]c23)c1
inconclusive: inhibition [8] -6.21% | aggregation (% of control) [9] 90.6% | protection [10] 1% | SMN2/SMN1 luciferase ratio [11] 0.98
inactive: fluorescence slope change [7] 8.8% | outcome [1] | outcome [2] | outcome [3] | outcome [4] | outcome [12]

CC(C)(C)OC(=O)Nc1ccc(-c2cc(C(=O)NCCCCCCC(=O)NO)no2)cc1
active: AC50 [2] 13.2 µM | AC50 [4] 1.86 µM
inconclusive: AC50 [1] 3.72 µM [cytotoxic] | AC50 [3] 6.62 µM [cytotoxic] | AC50 [5] 1.18 µM [cytotoxic] | IC50 [6] 4.68 µM [cytotoxic]

O=C1c2c(O)ccc(O)c2C(=O)c2c(NCCNCCO)ccc(NCCNCCO)c21
inconclusive: fluorescence slope change [7] 49.3% | active call at 10 uM (0/1) [13] 1 | inhibition [8] 17.9% | aggregation (% of control) [9] 118% | protection [10] 1% | SMN2/SMN1 luciferase ratio [11] 4.55 | AC50 [14] 14.8 µM [cytotoxic]
active: AC50 [1] 0.417 µM | AC50 [2] 18.7 µM | AC50 [3] 2.35 µM | AC50 [4] 10.5 µM | AC50 [12] 11.8 µM | IC50 [6] 18.6 µM

CCN(CC)CCNC(=O)c1ccc2nc(-c3ccccc3)c(-c3ccc(CN4CCC(n5c(=O)[nH]c6ccccc65)CC4)cc3)nc2c1
active: AC50 [1] 11.8 µM | AC50 [3] 8.33 µM | AC50 [4] 14.8 µM | AC50 [5] 3.32 µM | IC50 [6] 7.42 µM
inconclusive: AC50 [2] 33.2 µM [cytotoxic]

Nc1ncnc2c1c(-c1cccc(OCc3ccccc3)c1)cn2C1CC(CN2CCCC2)C1 (stereo unspecified)
inconclusive: AC50 [1] 6.61 µM [cytotoxic]
active: AC50 [2] 16.6 µM | AC50 [3] 20.9 µM | AC50 [4] 1.18 µM | AC50 [5] 1.18 µM

As a working copy, two of the compounds above.
c1coc(CNc2ncnc3nc[nH]c23)c1
inconclusive: inhibition [8] -6.21% | aggregation (% of control) [9] 90.6% | protection [10] 1% | SMN2/SMN1 luciferase ratio [11] 0.98
inactive: fluorescence slope change [7] 8.8% | outcome [1] | outcome [2] | outcome [3] | outcome [4] | outcome [12]

CC(C)(C)OC(=O)Nc1ccc(-c2cc(C(=O)NCCCCCCC(=O)NO)no2)cc1
active: AC50 [2] 13.2 µM | AC50 [4] 1.86 µM
inconclusive: AC50 [1] 3.72 µM [cytotoxic] | AC50 [3] 6.62 µM [cytotoxic] | AC50 [5] 1.18 µM [cytotoxic] | IC50 [6] 4.68 µM [cytotoxic]

Continuation:

CO[C@H]1C[C@@H]2CC[C@@H](C)[C@@](O)(O2)C(=O)C(=O)N2CCCC[C@H]2C(=O)O[C@H]([C@@H](C)C[C@@H]2CC[C@@H](O)[C@H](OC)C2)CC(=O)[C@H](C)/C=C(\C)[C@@H](O)[C@@H](OC)C(=O)[C@H](C)C[C@H](C)/C=C/C=C/C=C/1C
inconclusive: AC50 [1] 33.2 µM [cytotoxic] | AC50 [2] 8.33 µM [cytotoxic] | AC50 [4] 37.2 µM [cytotoxic] | AC50 [5] 29.6 µM [cytotoxic] | IC50 [6] 26.3 µM [cytotoxic]
active: AC50 [3] 20.9 µM

CNC(=O)c1cc(Oc2ccc(NC(=O)Nc3ccc(Cl)c(C(F)(F)F)c3)c(F)c2)ccn1
active: AC50 [1] 16.6 µM | IC50 [6] 20.9 µM
inconclusive: AC50 [2] 0.833 µM [cytotoxic] | AC50 [3] 5.9 µM [cytotoxic] | AC50 [4] 13.2 µM [cytotoxic] | AC50 [14] 2.95 µM [cytotoxic]

COc1ccc(F)c(F)c1C(=O)c1cnc(NC2CCN(S(C)(=O)=O)CC2)nc1N
active: AC50 [1] 1.86 µM | AC50 [3] 2.64 µM | IC50 [6] 1.86 µM
inconclusive: AC50 [2] 3.32 µM [cytotoxic] | AC50 [4] 1.32 µM [cytotoxic]

O=C1C[C@@H](c2ccc(O)cc2)Oc2cc(O)cc(O)c21
inconclusive: inhibition [8] 33.1% | aggregation (% of control) [9] 103% | SMN2/SMN1 luciferase ratio [11] 1 | AC50 [4] 37.2 µM [cytotoxic]
inactive: outcome [1] | outcome [2] | outcome [3] | outcome [12]

Cc1ccc(S(=O)(=O)N[C@@H](Cc2ccccc2)C(=O)CCl)cc1
inconclusive: AC50 [1] 29.5 µM [cytotoxic] | AC50 [2] 16.6 µM [cytotoxic] | AC50 [3] 18.7 µM [cytotoxic] | AC50 [4] 26.3 µM [cytotoxic] | IC50 [6] 26.3 µM [cytotoxic]
